# This is one part of the list. The main result of the screen is listed elsewhere. These columns were measured beside it and carry no call. Compounds called inactive in the main read-out are mostly missing here. The note in brackets gives the kind of curve behind each potency; many fits are weak.
# Experiment: qHTS Assay to Find Inhibitors of Chronic Active B-Cell Receptor Signaling
# Conditions: ABC-DLBCL IkBa-CBG/CBR reporter, luminescence ratio (green luciferase fused to IkBa over red control in TMD8 lymphoma cells), 4 h
# Outline: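 Doxycycline induced both beetle luciferases in TMD8 lymphoma cells; IKK-driven degradation limits the IkappaBalpha-fused green signal, while red luminescence normalises for cell number and nonspecific effects. Compounds tested up to 46 uM, 4 hrs.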
# [1] = measured here: CBR red luminescence, cell number
# [2] = measured here: IkBa-CBG green luminescence
Structure (SMILES),AC50 [1],AC50 [2]
COc1ccc(/C=C/C(=O)Nc2nonc2NC(C)=O)cc1,"18.4 µM [falling, partial curve]",
Cc1cccc(C#Cc2ccccc2)n1,"25.9 µM [rising, single point]",
Nc1ccc(C(=O)OCC(=O)N2CCOCC2)cc1[N+](=O)[O-],"14.6 µM [falling, partial curve, poor fit]",
COc1cc(NC(=S)N2CCN(S(=O)(=O)c3ccc(F)cc3)CC2)cc(OC)c1,"15.8 µM [falling, partial curve, poor fit]",
COc1cc(Nc2c3c(nc4ccccc24)CCC3)cc(OC)c1OC,,"15.8 µM [falling, partial curve]"
c1ccc(-c2nnc(-c3ccccn3)s2)nc1,"2 µM [falling, full curve, poor fit]",
O=C(Nc1ccc([N+](=O)[O-])cc1)c1ccccc1,"22.4 µM [falling, partial curve, poor fit]",
Fc1ccc(OCc2cc(-c3ccccc3)no2)cc1,"15.8 µM [falling, single point]",
CC1(C)SC(=S)N(NC(=O)Nc2ccccc2)C1N(O)C(=O)Nc1cccc2ccccc12 (configuration not stated),"20.6 µM [falling, single point]",
Cc1noc(C(=O)Nc2cc(Cl)ccc2O)c1Cl,"0.112 µM [rising, full curve, poor fit]",
O=C(Nc1ccc(F)cc1)Nc1csc2ccccc12,"3.98 µM [falling, full curve, poor fit]",
FC(F)(F)c1ccc(/C=N/n2c(C3CCCCC3)n[nH]c2=S)cc1,"15.8 µM [rising, partial curve]",
COc1ccc(C(CNC(=O)c2cc(C)oc2C)N2CCOCC2)cc1 (configuration not stated),"2.51 µM [falling, full curve]",
Nc1nc(CSc2nc3ccccc3s2)nc(Nc2ccccc2)n1,"32.6 µM [falling, single point]",
C/C(=N\NC(=O)c1ccccc1)c1ccc2c(c1)OCO2,"13 µM [falling, partial curve, poor fit]",
O=C(Cn1cnc2ccccc2c1=O)Nc1ccc2c(c1)OCO2,"2.91 µM [rising, single point]",
CC1CCCN(c2nc(-c3cccnc3)nc3scc(-c4ccccc4)c23)C1 (configuration not stated),"29.1 µM [rising, single point]",
Cc1ccc(SC2=C(Sc3ccc(C)cc3)C(=O)c3ccccc3C2=O)cc1,"7.08 µM [rising, partial curve, poor fit]",
O=C(CN(C1CC1)S(=O)(=O)c1ccc(S(=O)(=O)NC2CCCCC2)cc1)Nc1ccccc1,"22.4 µM [falling, single point]",
COc1ccccc1N1CCN(C(=O)c2ccc3c(c2)CCN3S(=O)(=O)c2ccccc2)CC1,"35.5 µM [falling, single point]",

Structure (SMILES),AC50 [1],AC50 [2]
COc1ccc(NC(=O)N2CCCC2C(=O)NC23CC4CC(CC(C4)C2)C3)cc1 (configuration not stated),"0.708 µM [rising, full curve, poor fit]",
C/C(=N\NC(=O)c1nn(C)cc1Br)c1ccncc1,"8.2 µM [falling, partial curve]",
COCC(=O)NCc1ccc2c(c1)cc(C)n2C,"18.4 µM [rising, partial curve, poor fit]",
CN1/C(=C\C(=O)Nc2ccc(Br)cc2)C(C)(C)c2ccccc21,"2.59 µM [rising, full curve, poor fit]",
COc1ccc2cc(CN(CC3CCCO3)C(=O)Nc3ccccc3)c(=O)[nH]c2c1 (configuration not stated),"17.8 µM [falling, single point]","12.6 µM [rising, single point]"
CC(=O)[C@H]1CCC2C3CC=C4C[C@@H](O)CC[C@]4(C)C3CC[C@@]21C (some centres not stated),"8.2 µM [rising, partial curve, poor fit]",
Cc1cc(C)n2nc(C(=O)Nc3cccc(S(=O)(=O)N(C)c4ccccc4)c3)nc2n1,"0.282 µM [rising, full curve, poor fit]",
CCCCn1c(SCC(=O)NCC2CCCO2)nc2ccc(N3CCOCC3)cc2c1=O (configuration not stated),"0.58 µM [falling, full curve, poor fit]",
COc1cc(NC(=O)C(=O)N2CCN(C)CC2)c(OC)cc1Cl,"0.794 µM [rising, partial curve, poor fit]",
O=C(Nc1nnc(-c2ccccc2)o1)c1cc(-c2cccs2)nc2ccccc12,"29.1 µM [falling, single point]","18.4 µM [falling, partial curve, poor fit]"
CC1CCN(C(=O)CC2C(=O)Nc3c2c(=O)n(C)c(=O)n3Cc2ccccc2)CC1 (configuration not stated),"0.562 µM [falling, partial curve, poor fit]",
CCN(CC(=O)Nc1ccc(NC(C)=O)cc1)CC(=O)Nc1cc(C)on1,"10.3 µM [rising, partial curve, poor fit]",
Cc1cc(C)c(C#N)c(SC(C(=O)NC(C)(C)C)c2ccccc2)n1 (configuration not stated),"10 µM [rising, partial curve, poor fit]",
Nc1cccc(-c2csc(-n3ncc(C(=O)O)c3C(F)(F)F)n2)c1,"2 µM [falling, full curve, poor fit]",
COc1ccc(NCc2nnc(SCC(=O)Nc3ccccc3OC)o2)cc1,"29.1 µM [falling, single point]",
CC(=O)C1=C(C)Nc2ncnn2C1c1ccccc1F (configuration not stated),"1.26 µM [rising, full curve, poor fit]",
Cc1ccc(-n2c(C)c(C)c3c(NCCO)ncnc32)cc1,"35.5 µM [rising, single point]",
Cc1ccccc1S(=O)(=O)Cc1ccc(C(=O)N2CCN(c3ccccc3F)CC2)o1,"0.631 µM [falling, full curve, poor fit]",
COc1ccccc1NC(=S)NNC(=O)c1ccncc1,"31.6 µM [falling, single point]",
CC[C@H]1OC(=O)[C@H](C)[C@@H](O[C@H]2C[C@@](C)(OC)[C@@H](O)[C@H](C)O2)[C@H](C)[C@@H](O[C@@H]2O[C@H](C)C[C@H](N(C)C)[C@H]2O)[C@](C)(O)C[C@@H](C)[C@@H]2N[C@@H](COCCOC)O[C@H]([C@H]2C)[C@]1(C)O,"29.1 µM [falling, partial curve, poor fit]",

# Arranged by length of the SMILES (rising): 9 of the compounds above
Structure (SMILES),AC50 [1],AC50 [2]
COc1ccccc1NC(=S)NNC(=O)c1ccncc1,"31.6 µM [falling, single point]",
Cc1ccc(-n2c(C)c(C)c3c(NCCO)ncnc32)cc1,"35.5 µM [rising, single point]",
COc1cc(NC(=O)C(=O)N2CCN(C)CC2)c(OC)cc1Cl,"0.794 µM [rising, partial curve, poor fit]",
CN1/C(=C\C(=O)Nc2ccc(Br)cc2)C(C)(C)c2ccccc21,"2.59 µM [rising, full curve, poor fit]",
Nc1cccc(-c2csc(-n3ncc(C(=O)O)c3C(F)(F)F)n2)c1,"2 µM [falling, full curve, poor fit]",
CCN(CC(=O)Nc1ccc(NC(C)=O)cc1)CC(=O)Nc1cc(C)on1,"10.3 µM [rising, partial curve, poor fit]",
O=C(Nc1nnc(-c2ccccc2)o1)c1cc(-c2cccs2)nc2ccccc12,"29.1 µM [falling, single point]","18.4 µM [falling, partial curve, poor fit]"
Cc1ccccc1S(=O)(=O)Cc1ccc(C(=O)N2CCN(c3ccccc3F)CC2)o1,"0.631 µM [falling, full curve, poor fit]",
CC1CCN(C(=O)CC2C(=O)Nc3c2c(=O)n(C)c(=O)n3Cc2ccccc2)CC1 (configuration not stated),"0.562 µM [falling, partial curve, poor fit]",
